Test [1] addresses T1, Hepatocyte nuclear factor 4A (HNF4A), overexpressed in HEK293T cells (mouse) (UniProt P49698).
T1 sequence: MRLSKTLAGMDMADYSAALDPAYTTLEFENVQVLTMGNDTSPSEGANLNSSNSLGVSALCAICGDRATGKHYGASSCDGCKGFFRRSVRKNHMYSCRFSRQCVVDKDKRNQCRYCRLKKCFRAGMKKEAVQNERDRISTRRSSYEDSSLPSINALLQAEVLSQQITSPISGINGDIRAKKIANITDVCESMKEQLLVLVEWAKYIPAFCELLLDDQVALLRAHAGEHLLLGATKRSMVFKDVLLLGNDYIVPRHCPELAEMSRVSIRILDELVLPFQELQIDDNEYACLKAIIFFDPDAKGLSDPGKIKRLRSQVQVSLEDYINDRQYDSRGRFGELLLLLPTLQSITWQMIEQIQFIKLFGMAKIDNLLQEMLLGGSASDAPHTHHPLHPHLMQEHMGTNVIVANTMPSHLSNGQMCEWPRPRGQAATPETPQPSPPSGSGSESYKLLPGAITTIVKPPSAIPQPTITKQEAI
The test can be described thus: proximity ligation; in situ PLA (Duolink) in fixed (4% paraformaldehyde), permeabilised HEK293T cells ectopically expressing HNF4A.

By UniProt entry, the sequences of proteins in these tests, tags left out.
UniProt Q9UBL3: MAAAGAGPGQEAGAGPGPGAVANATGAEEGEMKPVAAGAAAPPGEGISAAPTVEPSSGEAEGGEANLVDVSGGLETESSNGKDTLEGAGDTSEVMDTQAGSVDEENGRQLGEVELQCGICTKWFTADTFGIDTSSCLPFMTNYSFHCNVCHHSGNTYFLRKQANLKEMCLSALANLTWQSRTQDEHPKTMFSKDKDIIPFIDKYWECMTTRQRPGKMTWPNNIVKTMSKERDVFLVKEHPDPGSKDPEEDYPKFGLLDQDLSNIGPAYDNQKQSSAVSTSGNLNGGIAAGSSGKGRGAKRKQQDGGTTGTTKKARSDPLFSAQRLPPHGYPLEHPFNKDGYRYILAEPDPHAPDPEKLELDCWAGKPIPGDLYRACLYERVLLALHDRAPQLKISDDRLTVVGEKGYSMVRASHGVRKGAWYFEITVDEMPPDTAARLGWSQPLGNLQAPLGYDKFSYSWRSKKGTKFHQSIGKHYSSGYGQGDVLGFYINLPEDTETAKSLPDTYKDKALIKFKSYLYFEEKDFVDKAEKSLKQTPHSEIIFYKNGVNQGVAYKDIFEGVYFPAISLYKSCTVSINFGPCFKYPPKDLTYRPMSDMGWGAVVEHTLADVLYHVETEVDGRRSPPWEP
UniProt Q91X20: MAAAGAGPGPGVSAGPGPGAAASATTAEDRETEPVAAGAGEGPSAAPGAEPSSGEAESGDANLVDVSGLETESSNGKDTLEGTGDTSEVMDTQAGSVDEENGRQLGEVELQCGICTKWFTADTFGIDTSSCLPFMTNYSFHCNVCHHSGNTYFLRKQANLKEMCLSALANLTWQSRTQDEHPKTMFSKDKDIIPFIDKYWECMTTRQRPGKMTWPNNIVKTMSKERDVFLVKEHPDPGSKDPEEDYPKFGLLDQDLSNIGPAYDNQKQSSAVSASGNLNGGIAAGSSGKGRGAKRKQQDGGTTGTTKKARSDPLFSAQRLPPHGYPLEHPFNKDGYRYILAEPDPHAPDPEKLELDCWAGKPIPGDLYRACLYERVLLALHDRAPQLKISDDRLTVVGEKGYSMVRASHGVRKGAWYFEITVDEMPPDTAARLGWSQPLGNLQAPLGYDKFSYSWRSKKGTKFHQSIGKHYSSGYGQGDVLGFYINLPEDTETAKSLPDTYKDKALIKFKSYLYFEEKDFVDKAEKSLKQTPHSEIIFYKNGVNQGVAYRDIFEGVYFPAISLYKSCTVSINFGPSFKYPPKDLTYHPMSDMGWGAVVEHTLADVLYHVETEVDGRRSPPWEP
UniProt Q15291: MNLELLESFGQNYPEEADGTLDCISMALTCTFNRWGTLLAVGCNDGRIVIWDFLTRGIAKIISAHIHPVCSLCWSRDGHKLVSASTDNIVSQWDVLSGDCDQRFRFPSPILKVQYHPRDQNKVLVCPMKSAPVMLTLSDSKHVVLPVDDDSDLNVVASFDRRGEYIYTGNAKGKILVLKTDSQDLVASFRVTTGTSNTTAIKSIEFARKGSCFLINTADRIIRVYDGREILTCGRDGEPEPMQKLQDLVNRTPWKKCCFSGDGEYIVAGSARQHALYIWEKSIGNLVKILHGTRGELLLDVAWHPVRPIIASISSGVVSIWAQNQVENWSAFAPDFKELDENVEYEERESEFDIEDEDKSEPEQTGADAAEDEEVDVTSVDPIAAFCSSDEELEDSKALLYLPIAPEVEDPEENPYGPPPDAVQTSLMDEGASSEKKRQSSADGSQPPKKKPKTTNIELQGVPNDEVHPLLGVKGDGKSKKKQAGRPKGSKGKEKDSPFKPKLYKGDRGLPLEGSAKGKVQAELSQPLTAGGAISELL
UniProt Q8BX09: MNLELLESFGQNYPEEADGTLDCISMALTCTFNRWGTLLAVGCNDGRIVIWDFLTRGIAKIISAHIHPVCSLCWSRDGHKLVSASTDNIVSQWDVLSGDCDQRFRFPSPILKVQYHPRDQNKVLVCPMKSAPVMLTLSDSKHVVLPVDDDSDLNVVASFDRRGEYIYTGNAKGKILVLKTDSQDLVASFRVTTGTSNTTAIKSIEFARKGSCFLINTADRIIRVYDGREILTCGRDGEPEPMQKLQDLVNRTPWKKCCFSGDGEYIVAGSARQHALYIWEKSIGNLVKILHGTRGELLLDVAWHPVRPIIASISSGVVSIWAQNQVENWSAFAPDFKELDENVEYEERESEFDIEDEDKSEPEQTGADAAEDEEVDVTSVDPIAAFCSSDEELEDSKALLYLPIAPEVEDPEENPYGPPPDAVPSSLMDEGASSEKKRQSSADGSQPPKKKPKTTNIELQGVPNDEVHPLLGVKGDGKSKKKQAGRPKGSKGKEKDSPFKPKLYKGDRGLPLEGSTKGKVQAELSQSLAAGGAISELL

Test [2] has as its target T1, Hepatocyte nuclear factor 4A (HNF4A), overexpressed in HEK293T cells (mouse). The test can be described thus: co-IP; lysate of HEK293T cells overexpressing HNF4A; CHAPS buffer, antibody overnight at 4 °C, protein A/G beads; western blot.
The target in test [3] is T2, Hepatocyte nuclear factor 4A (HNF4A), mouse, ectopically expressed in NIH 3T3 cells (mouse) (UniProt P49698).
T2 sequence: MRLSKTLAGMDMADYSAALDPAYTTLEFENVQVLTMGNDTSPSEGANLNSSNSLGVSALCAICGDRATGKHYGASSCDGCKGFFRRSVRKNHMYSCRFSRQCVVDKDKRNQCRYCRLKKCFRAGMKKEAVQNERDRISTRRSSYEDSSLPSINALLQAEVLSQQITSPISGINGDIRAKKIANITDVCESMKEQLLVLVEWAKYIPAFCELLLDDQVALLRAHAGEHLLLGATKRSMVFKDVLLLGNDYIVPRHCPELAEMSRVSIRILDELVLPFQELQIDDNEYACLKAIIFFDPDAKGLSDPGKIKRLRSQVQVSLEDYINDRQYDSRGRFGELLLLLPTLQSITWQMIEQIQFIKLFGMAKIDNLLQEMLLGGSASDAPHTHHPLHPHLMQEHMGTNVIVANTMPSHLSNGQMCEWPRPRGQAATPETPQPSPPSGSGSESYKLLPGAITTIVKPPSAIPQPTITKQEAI
The test can be described thus: co-IP; lysate (CHAPS buffer) of NIH 3T3 cells ectopically expressing HNF4A; 2.5 ug HNF4A or MLL4 antibody overnight at 4 °C, IgG as negative control, protein A/G beads, 3 washes with CHAPS buffer; western blot for UTX, ASH2L, RBBP5 or HNF4A.

Test [4] deals with T2, Hepatocyte nuclear factor 4A (HNF4A), mouse, ectopically expressed in NIH 3T3 cells (mouse). The test can be described thus: proximity ligation; in situ PLA (Duolink) in fixed (4% paraformaldehyde), permeabilised NIH 3T3 cells ectopically expressing HNF4A; control cells and single-antibody negative controls.
In test [5] the target is T3, Hepatocyte nuclear factor 4A (HNF4A), endogenous in mouse liver (mouse (endogenous in liver)) (UniProt P49698).
T3 sequence: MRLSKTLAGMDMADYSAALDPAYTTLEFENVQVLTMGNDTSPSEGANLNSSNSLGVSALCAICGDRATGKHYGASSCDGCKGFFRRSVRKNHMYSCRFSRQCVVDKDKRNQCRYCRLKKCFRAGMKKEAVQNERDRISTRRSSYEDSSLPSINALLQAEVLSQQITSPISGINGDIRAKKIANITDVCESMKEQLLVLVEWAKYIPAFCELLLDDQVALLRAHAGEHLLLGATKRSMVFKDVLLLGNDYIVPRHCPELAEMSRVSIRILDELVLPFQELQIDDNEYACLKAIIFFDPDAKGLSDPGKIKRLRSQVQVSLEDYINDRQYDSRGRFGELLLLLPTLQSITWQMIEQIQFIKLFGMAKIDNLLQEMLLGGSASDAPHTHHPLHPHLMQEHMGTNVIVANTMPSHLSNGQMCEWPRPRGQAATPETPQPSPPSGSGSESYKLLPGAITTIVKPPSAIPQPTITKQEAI
The test can be described thus: co-IP; mouse liver with endogenously expressed HNF4A; western blot; preparation of the liver lysate not described.

The target of test [6] is Mixed-lineage leukaemia 4 (MLL4), endogenous in NIH 3T3 cells (mouse (endogenous in NIH 3T3)) (UniProt Q6PDK2). The test can be described thus: co-IP; lysate (CHAPS buffer) of NIH 3T3 cells ectopically expressing HNF4A; 2.5 ug HNF4A or MLL4 antibody overnight at 4 °C, IgG as negative control, protein A/G beads, 3 washes with CHAPS buffer; western blot for UTX, ASH2L, RBBP5 or HNF4A.

Test [7] has the same target. The test can be described thus: proximity ligation; in situ PLA (Duolink) in fixed (4% paraformaldehyde), permeabilised NIH 3T3 cells ectopically expressing HNF4A; control cells and single-antibody negative controls.
The target in test [8] is Mixed-lineage leukaemia 4 (MLL4), endogenous in HEK293T cells (human (endogenous in HEK293T)) (UniProt O14686). The test can be described thus: proximity ligation; in situ PLA (Duolink) in fixed (4% paraformaldehyde), permeabilised HEK293T cells ectopically expressing HNF4A.

This note sets out measurements from publication PMC10830483.

Results are given in words; binding and its absence hold for the method and conditions named. In cells and extracts the contact can be indirect. Some binding calls cover weakened binding; strength is not graded here.

As to “ASH2L, endogenous in HEK293T cells (from UniProt Q9UBL3 1-628)”, the binding result in test [1] and in test [2] was “binds” in each case.

On to “ASH2L, endogenous in NIH 3T3 cells (from UniProt Q91X20 1-623)”, for which the binding result in test [3] and in test [4] was “binds” in each case.

With “ASH2L, endogenous in mouse liver (from UniProt Q91X20 1-623)”, the binding entry in test [5] was “binds”.

For “RBBP5, endogenous in HEK293T cells (from UniProt Q15291 1-538)”, the binding result in test [2] was “binds”.

For “RBBP5, endogenous in NIH 3T3 cells (from UniProt Q8BX09 1-538)”, the binding entry in test [3] is recorded as “binds”.

Consider “RBBP5, endogenous in mouse liver (from UniProt Q8BX09 1-538)”, for which the binding result in test [5] is “binds”.

B1: Hepatocyte nuclear factor 4A (HNF4A), mouse, ectopically expressed in NIH 3T3 cells (protein, UniProt P49698 1-474)
chain: MRLSKTLAGMDMADYSAALDPAYTTLEFENVQVLTMGNDTSPSEGANLNSSNSLGVSALCAICGDRATGKHYGASSCDGCKGFFRRSVRKNHMYSCRFSRQCVVDKDKRNQCRYCRLKKCFRAGMKKEAVQNERDRISTRRSSYEDSSLPSINALLQAEVLSQQITSPISGINGDIRAKKIANITDVCESMKEQLLVLVEWAKYIPAFCELLLDDQVALLRAHAGEHLLLGATKRSMVFKDVLLLGNDYIVPRHCPELAEMSRVSIRILDELVLPFQELQIDDNEYACLKAIIFFDPDAKGLSDPGKIKRLRSQVQVSLEDYINDRQYDSRGRFGELLLLLPTLQSITWQMIEQIQFIKLFGMAKIDNLLQEMLLGGSASDAPHTHHPLHPHLMQEHMGTNVIVANTMPSHLSNGQMCEWPRPRGQAATPETPQPSPPSGSGSESYKLLPGAITTIVKPPSAIPQPTITKQEAI
For B1, the binding result in test [6] and in test [7] was “binds” in each case.

B2: Hepatocyte nuclear factor 4A (HNF4A), overexpressed in HEK293T cells (protein, UniProt P49698 1-474)
chain: MRLSKTLAGMDMADYSAALDPAYTTLEFENVQVLTMGNDTSPSEGANLNSSNSLGVSALCAICGDRATGKHYGASSCDGCKGFFRRSVRKNHMYSCRFSRQCVVDKDKRNQCRYCRLKKCFRAGMKKEAVQNERDRISTRRSSYEDSSLPSINALLQAEVLSQQITSPISGINGDIRAKKIANITDVCESMKEQLLVLVEWAKYIPAFCELLLDDQVALLRAHAGEHLLLGATKRSMVFKDVLLLGNDYIVPRHCPELAEMSRVSIRILDELVLPFQELQIDDNEYACLKAIIFFDPDAKGLSDPGKIKRLRSQVQVSLEDYINDRQYDSRGRFGELLLLLPTLQSITWQMIEQIQFIKLFGMAKIDNLLQEMLLGGSASDAPHTHHPLHPHLMQEHMGTNVIVANTMPSHLSNGQMCEWPRPRGQAATPETPQPSPPSGSGSESYKLLPGAITTIVKPPSAIPQPTITKQEAI
Consider B2, for which, in test [8], the binding result is “binds”.
